According to PubChem BioAssay AID2685 (National Center for Advancing Translational Sciences (NCATS), 2010):
The other results are listed elsewhere or left out. The main result of the screen is listed elsewhere. These columns were measured beside it and carry no call. The list favours compounds with an active or inconclusive main result. The note in brackets gives the kind of curve behind each potency; many fits are weak.

Experiment: qHTS Assay for Lipid Storage Modulators in Drosophila S3 Cells;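 as to cell number change: cells counted by Cell Tracker Red CMTPX staining in the red channel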
Details: BODIPY lipid droplet fluorescence, 18-24 h; for cell number change: measured here: cell count max response, cells fed with added oleic acid
Summary of the method: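 Drosophila S3 cells got compounds at several concentrations plus oleic acid (400 uM solution). Laser-scanning cytometry with 488 nm excitation read lipid droplets at 500-530 nm and cells at 575-640 nm. Percent activity was relative to 20 uM Triacsin C.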

[1] = measured here: lipid fluorescence (Fed channel) AC50, cells fed with added oleic acid
[2] = measured here: cell number channel AC50, cells fed with added oleic acid

SMILES	cell number change	AC50 [1]	AC50 [2]
O=C(COC(=O)c1ncc(Cl)c(Cl)c1Cl)NCc1cccs1	-25.6%	18.4 µM [falling, single point]	
Cc1onc(-c2ccccc2Cl)c1C(=O)N1CCN(C/C=C/c2ccccc2)CC1	-8.7%	0.116 µM [falling, full curve]	
CCOc1ccc(N2C(=O)CC(N)C2=O)cc1 (stereo unspecified)	-72.1%	23.1 µM [falling, single point]	18.4 µM [falling, single point]
CCOC(=O)C1(CCc2ccccc2)CCN(Cc2ccc(O)cc2)CC1	-13.6%	0.731 µM [falling, full curve]	
Cc1cccc(NS(=O)(=O)c2ccc(C(=O)NCC(c3ccco3)N3CCCCC3)cc2)c1C (stereo unspecified)			4.11 µM [rising, single point]
COc1cc(NC(=S)Nc2ccc(S(=O)(=O)N3CCOCC3)cc2)cc(OC)c1OC	58.3%	13 µM [rising, partial curve]	2.31 µM [rising, partial curve]
O=C(CCCc1nc(-c2ccccc2Cl)no1)NC1CCCC1	3.88%	6.51 µM [falling, single point]	
CCOc1ccc(N2C(=O)CC(Sc3nc(CC(C)C)ccc3C#N)C2=O)cc1 (stereo unspecified)	9.67%		
COc1cc(C=O)ccc1OCc1c(C)noc1C	-110%	1.3 µM [falling, partial curve]	11.6 µM [falling, partial curve]
COC(=O)c1ccccc1Sc1c(/C=N/OCc2ccc(Cl)cc2)c(C(F)(F)F)nn1C	3.31%	1.3 µM [rising, partial curve]	
Cc1cc(=O)[nH]c(SC(C(=O)O)c2ccccc2)n1 (stereo unspecified)	81.5%	3.66 µM [rising, full curve]	4.11 µM [rising, full curve]
OCCC1CN(Cc2cnn(-c3ccccc3Cl)c2)CCN1Cc1ccsc1 (stereo unspecified)	25.7%	25.9 µM [rising, partial curve]	
Cc1snc(S(=O)(=O)/C(C#N)=N\Nc2ccccc2)c1C#N	7.16%	1.84 µM [rising, full curve]	
COc1ccc(CC2=C(O)c3ccccc3C(=O)C2=O)cc1	-21.5%	29.1 µM [falling, single point]	
Cc1cccc(Oc2nc(-c3cccc([N+](=O)[O-])c3)nc3ccccc23)c1C	-8.63%		
COc1ccc(OC)c(-n2c(-c3cnccn3)n[nH]c2=S)c1	60.4%		29.1 µM [rising, single point]
COc1ccc(CCNC(=O)c2cc(-c3ccncc3)nc3c(Cl)cccc23)cc1OC	-26.8%	29.1 µM [falling, single point]	4.11 µM [falling, full curve, poor fit]

Some entries already given with just cell number change and AC50 [2]:
SMILES,cell number change,AC50 [2]
COc1cc(C=O)ccc1OCc1c(C)noc1C,-110%,"11.6 µM [falling, partial curve]"
COC(=O)c1ccccc1Sc1c(/C=N/OCc2ccc(Cl)cc2)c(C(F)(F)F)nn1C,3.31%,
